In patent publication US20200289603A1 (ELIXIRON IMMUNOTHERAPEUTICS HONG KONG, published 2020):
Results are given in words; binding and its absence hold for the method and conditions named. Some results given as binding are weak or reduced against the parent protein; the word gives no strength.

Amino acid sequences for entries named in this document (tags omitted). A change or cut given only in a name is not applied to a line headed by its entry.
UniProt P01579: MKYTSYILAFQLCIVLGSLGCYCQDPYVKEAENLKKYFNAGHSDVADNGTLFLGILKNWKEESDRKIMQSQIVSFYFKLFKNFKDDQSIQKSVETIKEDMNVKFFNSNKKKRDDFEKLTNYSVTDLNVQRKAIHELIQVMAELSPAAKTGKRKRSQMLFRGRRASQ

Legend:
[1] = target: recombinant human IFNγ protein (R&D systems, 285-IF-100) (human) (UniProt P01579); assay: ELISA, biotinylated human IFNγ on streptavidin plate, serial dilutions of antibody (FIG. 3A)
[2] = target: recombinant human IFNγ protein (R&D systems, 285-IF-100) (human) (UniProt P01579); assay: ELISA, plate coated with recombinant human IFN-γ (2 µg/mL), OD405
[3] = target: recombinant human IFNγ protein (R&D systems, 285-IF-100) (human) (UniProt P01579); assay: ELISA: biotinylated human IFNγ on streptavidin-coated plate, serial dilutions of antibody, HRP anti-human IgG, TMB, OD 450-650 nm
[4] = target: Cynomolgus IFNγ (R&D systems 961-RM-025) (rhesus macaque/cynomolgus); assay: ELISA: biotinylated rhesus macaque/cynomolgus IFNγ on streptavidin-coated plate, serial dilutions of antibody, HRP anti-human IgG, TMB, OD 450-650 nm
[5] = target: Cynomolgus IFNγ (R&D systems 961-RM-025) (rhesus macaque/cynomolgus); assay: ELISA, biotinylated cynomolgus IFNγ on streptavidin plate, serial dilutions of antibody (FIG. 3B)

Measured: binding

B1: AB (antibody, V domains shown)
VH: EVQLVESGGGLVKPGDSLTVSCVASGFTFSNYFIHWVRQAPGKGLEWVATISGRTKYMFYSDSLRGRFTVSRDNANNSVYLHMSSLRGEDTALYYCVRGYDHSDSNSAADLLHWGRGTLVTVSS
VL: NFMLTQPHSVSESPGKTITISCTRGRGYIASYYVQWYQQRPGGVPKIVVFEDTQRPSGVPDRISGSIDTSTNSASLTISGLQTEDEADYYCQSYDDANHVIFGGGTKLTVLG
binds: [1] | [2] | [3] | [4] | [5]

B2: 2A6 (antibody, human IgG1, lambda, V domains shown)
VH: EVQLVESGGGLVKPGDSLTVSCVASGFTFSNYFIHWVRQAPGKGLEWVATISGRTKYMFYSDSLRGRFTVSRDNANNSVYLHMSSLRGEDTALYYCVRGYDHSDSNSAADLLHWGRGTLVTVSS
VL: NFMLTQPLSVSGYPGKTIVISCVRSSGSVASHYVQWFQQRPGSAPAMVIYEDSHRPSGIPDRFSGSVDASSNSASLTISGLKTEDEADYFCQSYYGNNQVLFGGGTKLTVLG
modifications: partial N-linked glycosylation at position 76 of the VH region
notes: Human IgG1 lambda, cloned from a single patient B cell and expressed in FreeStyle 293-F cells; also called 2A6 anti-IFNγ mAb
binds: [1] | [2] | [3]

B3: 2B6 (antibody, human IgG1, lambda, V domains shown)
VH: EVQLVESGGGLVKPGGSLRLSCAASGFPFSRYSMHWVRQAPGKGLEWVSSMTSRTNHKYYADSLKGRFLISRDNDRDSLYLEMNSLGVEDTAIYFCARGYDTSGSDSGVDFQYWGQGTLVTVSS
VL: NFMLTQPHSVSESPGKTITISCTRGRGYIASYYVQWYQQRPGGVPKIVVFEDTQRPSGVPDRISGSIDTSTNSASLTISGLQTEDEADYYCQSYDDANHVIFGGGTKLTVLG
notes: Human IgG1 lambda; also called 2B6 anti-IFNγ mAb
binds: [1] | [2] | [3]
